Data source: PubChem BioAssay AID652243 (Drosophila RNAi Screening Center, 2013)
Aim: 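Fly regulators of androgen-dependent reporter output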 (primary screen). Cells: Drosophila S2R+ cells. Reagent: long dsRNA against Drosophila genes. Time to read-out: 72 h (48 h, then 24 h hormone). Conditions: synthetic androgen R1881 at 10 nM for 24 h. Detection: 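Firefly light from an androgen-responsive reporter and Renilla control light per well, raw and unnormalised, for each of two replicates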. Direction: firefly reporter light: higher = more light from androgen-responsive reporter; Renilla control light: higher = more constitutive control signal (cell number, transfection). Call rule: 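Across duplicate plates, a knock-down whose log firefly/Renilla ratio shifted a set fold down or up from the GFP/LacZ control mean was a hit; the downward cut appears as both 1.5 and 3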. Meaning of the calls: active = hit: reporter lowered or raised; inactive = no hit.
In all, the deposit lists about 24,000 reagents; shown is an unselected part of those with a known target gene and a result. Over the whole deposit, 246 (1%) got an active call. 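Plates not normalised; calls are printed but the firefly/Renilla ratio behind them is not deposited; fold cut for lowering reported inconsistently.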 Raw values are not corrected between plates. Reagent sequences are not shown. Not given: the amount of reagent.

Target gene	amplicon	firefly reporter light, replicate 1	firefly reporter light, replicate 2	Renilla control light, replicate 1	Renilla control light, replicate 2	activity call
boca	DRSC06408	3.91e5	4.66e5	1.31e6	1.35e6	inactive
ScpX	DRSC03430	5.08e5	6.24e5	1.63e6	2.58e6	inactive
CG18682 (retired record)	DRSC15373	2.20e5	1.86e5	2.25e6	2.71e6	inactive
CG18682 (retired record)	DRSC15374	1.54e5	1.31e5	2.19e6	2.07e6	inactive
CG42676	DRSC08392	62022	1.02e5	1.30e6	1.79e6	inactive
CG42676	DRSC23487	8.83e5	1.08e6	1.07e6	1.13e6	inactive
CG9590	DRSC16506	1.16e5	1.21e5	6.50e5	7.10e5	inactive
CG3165	DRSC00573	7.93e5	8.60e5	2.39e6	1.98e6	inactive
CG34217	DRSC38886	7.95e5	8.01e5	1.92e6	1.64e6	inactive
CG34238	DRSC38652	8.68e5	7.06e5	2.43e6	2.13e6	inactive
CG5439	DRSC02861	9.75e5	8.87e5	2.09e6	2.17e6	inactive
CG5439	DRSC25932	2.58e5	4.14e5	7.22e5	7.51e5	inactive
CG12307	DRSC02159	1.99e5	2.04e5	1.19e6	1.08e6	inactive
St1 (Sulfotransferase 1)	DRSC04504	2.58e5	7.88e5	6.87e5	1.44e6	inactive
St1 (Sulfotransferase 1)	DRSC25543	8.46e5	8.45e5	4.82e5	7.73e5	inactive
wb (wing blister)	DRSC01375	16131	26693	1.84e5	1.87e5	inactive
wb (wing blister)	DRSC03634	1.81e5	2.07e5	2.28e6	2.93e6	inactive
wb (wing blister)	DRSC23003	1.07e6	1.29e6	1.20e6	1.44e6	inactive
wb (wing blister)	DRSC39164	1.01e6	9.25e5	2.60e6	2.02e6	inactive
CG34404	DRSC15335	86510	54397	2.47e6	1.85e6	active
CG34404	DRSC15978	87047	57706	4.92e5	4.70e5	inactive
CG34404	DRSC25463	5.37e5	4.44e5	9.39e5	6.93e5	inactive
yem (yemanuclein)	DRSC14865	2.71e5	2.72e5	2.81e6	2.52e6	inactive
yem (yemanuclein)	DRSC17097	2.39e5	1.91e5	1.57e6	1.98e6	inactive

3 consecutive entries from above:
Target gene	amplicon	firefly reporter light, replicate 1	firefly reporter light, replicate 2	Renilla control light, replicate 1	Renilla control light, replicate 2	activity call
CG9590	DRSC16506	1.16e5	1.21e5	6.50e5	7.10e5	inactive
CG3165	DRSC00573	7.93e5	8.60e5	2.39e6	1.98e6	inactive
CG34217	DRSC38886	7.95e5	8.01e5	1.92e6	1.64e6	inactive
